Source: PubChem BioAssay AID504791 (Drosophila RNAi Screening Center, 2011)
The deposit covers about 23,000 reagents; shown is a random part of those with a known target gene and a result. In the full data, 199 (0.86%) got an active call. 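Plate-scaled ratios behind the calls are not deposited; printed light signals are raw; many rows marked increased or decreased are still called inactive.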 A number with no mark means an inactive call. A plus sign joins genes that one reagent is predicted to hit. The record does not give: the direction of the score.

Test: 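Factors in Argonaute-based small RNA production and activity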 (primary screen)
Cell system: Drosophila S2-derived reporter cells
Reagents: long dsRNA against Drosophila genes, about 150-250 ng dsRNA per well (siRNA assay); about 80-120 ng (miRNA assay)
Time to read-out: about 5 days (siRNA assay); about 4 days (miRNA assay)
Treatment: copper sulfate induction of reporters: 25 µM (siRNA assay); 200 mM stated (miRNA assay), 1-2 days before reading
Measurement: 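Per-well ratio of Renilla over firefly light, expressed relative to that plate's average ratio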
Call rule: 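a well was a first-pass pick when its plate-scaled ratio rose above 1.5 (siRNA assay) or 1.6 (miRNA assay), or dropped below 0.6; a gene counted only if two separate dsRNAs agreed on retest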

For CG14401 [DRSC02385], what does the deposit list?
stable assay Renilla, run 1 (luminescence): 6867; stable assay firefly, run 1 (luminescence): 4.03e5

With CG14401 [DRSC21710], what does the deposit list?
stable assay Renilla, run 1 (luminescence): 10157; stable assay firefly, run 1 (luminescence): 6.04e5

Which result is listed for SkpF + CG5357 (retired record) [DRSC04120]?
stable assay Renilla, run 1 (luminescence): 5828; stable assay firefly, run 1 (luminescence): 4.16e5

For CG3156 [DRSC18503], what does the deposit list?
stable assay Renilla, run 1 (luminescence): 8578; stable assay firefly, run 1 (luminescence): 5.14e5

With ND-51 (NADH dehydrogenase (ubiquinone) 51 kDa subunit) [DRSC03145], what does the deposit list?
stable assay Renilla, run 1 (luminescence): 1.51e5; stable assay firefly, run 1 (luminescence): 3.06e5

Which result is listed for CG42286 (retired record) [DRSC14357]?
stable assay Renilla, run 1 (luminescence): 6079; stable assay firefly, run 1 (luminescence): 2.74e5

With obst-I (obstructor-I) [DRSC08339], what does the deposit list?
stable assay Renilla, run 1 (luminescence): 9723; stable assay firefly, run 1 (luminescence): 2.87e5

For eEF1gamma (eukaryotic translation elongation factor 1 gamma) [DRSC16659], what was measured?
stable assay Renilla, run 1 (luminescence): 7927; stable assay firefly, run 1 (luminescence): 4.24e5

What did the screen give for CG32263 [DRSC22431]?
stable assay Renilla, run 1 (luminescence): 5602; stable assay firefly, run 1 (luminescence): 5.20e5

With CG11590 [DRSC19411], what was measured?
stable assay Renilla, run 1 (luminescence): 5406; stable assay firefly, run 1 (luminescence): 4.13e5

Which result is listed for Mtk (Metchnikowin) [DRSC07475]?
stable assay Renilla, run 1 (luminescence): 5347; stable assay firefly, run 1 (luminescence): 2.97e5

For cyr (cypher) [DRSC18017], what does the deposit list?
stable assay Renilla, run 1 (luminescence): 4966; stable assay firefly, run 1 (luminescence): 3.23e5

For cyr (cypher) [DRSC18018], how do the results read?
stable assay Renilla, run 1 (luminescence): 5435; stable assay firefly, run 1 (luminescence): 3.23e5

Which result is listed for cyr (cypher) [DRSC18021]?
stable assay Renilla, run 1 (luminescence): 6007; stable assay firefly, run 1 (luminescence): 3.32e5
